In PubChem BioAssay AID2549 (National Center for Advancing Translational Sciences (NCATS), 2010):
Where “and” joins values, the source holds several entries; their conditions need not be identical. Identical values can stand only once. Out of some 240,000 compounds screened, about 1,300 (0.54%) were called active. This list was built around the results that the source calls inconclusive (neither active nor inactive); the mix of calls is not that of the screen. Calls follow the shape of the dose curve; as a rule, active = well fitted inhibition curve with a large enough effect; inconclusive = small, poorly fitted or top-dose-only effect; inactive = flat fitted curve, though single readings scatter. Where the call is inconclusive, the potency comes from a doubtful curve fit.

Sequences of proteins named here, by UniProt entry; tags and fusion partners are left off. A change or cut given only in a name is not applied to a line headed by its entry.
UniProt P46063: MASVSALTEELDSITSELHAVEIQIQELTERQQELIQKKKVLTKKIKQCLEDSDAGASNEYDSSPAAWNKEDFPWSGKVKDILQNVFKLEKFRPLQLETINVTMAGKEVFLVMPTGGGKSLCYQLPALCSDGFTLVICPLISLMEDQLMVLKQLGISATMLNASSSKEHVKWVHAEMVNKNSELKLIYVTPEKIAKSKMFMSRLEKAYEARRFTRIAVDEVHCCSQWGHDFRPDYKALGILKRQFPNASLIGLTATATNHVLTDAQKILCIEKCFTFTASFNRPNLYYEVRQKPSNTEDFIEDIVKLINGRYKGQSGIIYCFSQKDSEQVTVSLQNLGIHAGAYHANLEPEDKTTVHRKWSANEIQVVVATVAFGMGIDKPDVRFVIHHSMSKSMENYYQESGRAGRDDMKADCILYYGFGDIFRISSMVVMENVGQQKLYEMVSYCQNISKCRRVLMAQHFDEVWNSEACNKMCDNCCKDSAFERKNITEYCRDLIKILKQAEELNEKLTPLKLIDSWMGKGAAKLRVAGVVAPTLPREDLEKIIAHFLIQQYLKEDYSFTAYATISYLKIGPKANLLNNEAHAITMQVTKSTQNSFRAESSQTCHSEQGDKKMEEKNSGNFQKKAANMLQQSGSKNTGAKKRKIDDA

The compounds below were run against ATP-dependent DNA helicase Q1 (Homo sapiens) (UniProt P46063) (assay: qHTS Assay for Inhibitors of RecQ-Like Dna Helicase 1 (RECQ1)). Settings: RECQ1 DNA unwinding, red fluorescence kinetic read; series mostly up to 57.3 µM.
Procedure, shortened: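 50 nM RECQ1T1 preincubated 15 min with compound in Tris pH 8.0 buffer with MgCl2, DTT, Tween-20 and 2.5 ug/ml poly(dI-dC); started with 200 nM TAMRA/BHQ-2 forked duplex and 2 mM ATP. Unwinding read as fluorescence (525/598 nm), two reads 2 h apart.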
Also: nearly all actives have a fitted effect of over 30% in size.
Potency is read from the fitted curve at half-maximal effect.

Structure (SMILES) | Potency
O=[N+]([O-])c1cc(/C=N\Nc2nccs2)ccc1O | active: 11.2 µM
Cc1nn(-c2ncc(C(F)(F)F)cc2Cl)c(=O)n1-c1cccc(Cl)c1 | inconclusive: 0.158 µM [inhibitor, full curve, poor fit]
COCCn1c(=O)c(-c2ccc(Cl)cc2)nc2cnc(N3CCNCC3)nc21 | inactive
Cc1cc(C)cc(C(=O)NCC(=O)OCC(=O)N2c3ccccc3NC(=O)C2(C)C)c1 | inconclusive: 35.5 µM [inhibitor, single point]
Cc1sc(-n2c(C)cc(/C=C3\SC(=S)NC3=O)c2C)c(C#N)c1C | active: 28.2 µM
COC1=C(Nc2ccc(O)cc2)C(=O)c2ccccc2C1=O | inconclusive: 39.8 µM [inhibitor, single point]
Cc1cc(N2CCN(c3nc(-c4ccccc4)cs3)CC2)c2ccccc2n1 | active: 8.91 µM
O=C(OC1Cc2c(O)cc(O)cc2OC1c1cc(O)c(O)c(O)c1-c1c(C2Oc3cc(O)cc(O)c3CC2OC(=O)c2cc(O)c(O)c(O)c2)cc(O)c(O)c1O)c1cc(O)c(O)c(O)c1 (stereo unspecified) | active: 4.47 µM
CC(=O)N(c1ccccc1C)C1CCCC1 | inactive
O=C(Nc1ccc(-n2nncc2-c2ccco2)cc1)c1cc2ccccc2oc1=O | active: 6.31 µM
CCOc1nc2cccc(C(=O)OC(C)OC(=O)OC3CCCCC3)c2n1Cc1ccc(-c2ccccc2-c2nn[nH]n2)cc1 (stereo unspecified) | inconclusive: 28.2 µM [inhibitor, single point]
CC(C)C[C@H](NC(=O)CNC(=O)[C@@H]1CCCN1C(=O)[C@H](CCCNC(=N)N)NC(=O)[C@H](CC(=O)O)NC(=O)[C@@H](NC(=O)[C@H](CC(N)=O)NC(=O)[C@@H](NC(=O)[C@H](CC(=O)O)NC(=O)CNC(=O)[C@@H](NC(=O)[C@@H](NC(=O)[C@H](C)NC(=O)[C@@H](N)CCC(N)=O)[C@@H](C)O)C(C)C)C(C)C)[C@@H](C)O)C(=O)N[C@@H](CC(C)C)C(=O)N[C@@H](CC(=O)O)C(=O)N[C@@H](CC(C)C)C(=O)N[C@@H](CCCCN)C(=O)O | inactive
O=C1C(Cl)=C(NCCN2CCOCC2)C(=O)c2ncccc21 | inconclusive: 39.8 µM [inhibitor, single point] and inconclusive: 35.5 µM [inhibitor, single point]
O=c1cc(O)cc(/C=C/c2ccc(O)c(O)c2)o1 | active: 0.794 µM
Cc1nc(SCC(=O)c2c[nH]c3ccccc23)n[nH]1 | inconclusive: 3.55 µM [inhibitor, full curve]
CCC(=Nc1ccc(N)cc1)C1=C(O)C(C(=O)OC)C(C)(C)CC1=O (stereo unspecified) | inconclusive: 28.2 µM [inhibitor, single point]
CCc1nc(N2CCN(C(=O)c3ccccc3)CC2)c2c3c(sc2n1)CCCC3 | inconclusive: 31.6 µM [inhibitor, single point]
CCOc1cc(Br)ccc1S(=O)(=O)N1CC(C)OC(C)C1 (stereo unspecified) | inconclusive: 7.08 µM [inhibitor, partial curve]
O=C(OCC#Cc1c(COC(=O)c2ccccc2)nnn1Cc1ccccc1)c1ccccc1 | inconclusive: 6.31 µM [inhibitor, single point]
O=C(NCc1ccco1)c1ccccc1NS(=O)(=O)c1cccs1 | inconclusive: 3.55 µM [inhibitor, partial curve]
CCOC(=O)c1cnn(-c2cc(Oc3ccccc3)ncn2)c1N | inconclusive: 39.8 µM [inhibitor, single point]

Structure (SMILES) | Potency
O=C(O)c1ccc(Nc2nc(-c3cc4ccccc4oc3=O)cs2)cc1O | inactive
CCn1c(SCC(=O)N/N=C/C=C/c2ccco2)nnc1-c1ccccc1 | inconclusive: 31.6 µM [inhibitor, single point]
CC(=O)OCCNc1nc(-c2ccccc2)nc2ccccc12 | inconclusive: 35.5 µM [inhibitor, single point]
CC1CCN(S(=O)(=O)c2ccc(Oc3ccc([N+](=O)[O-])cc3)cc2)CC1 | inconclusive: 17.8 µM [inhibitor, single point]
Cc1ccccc1C(=O)Nc1ccc2c(C#N)c3nc4ccccc4nc3n2c1 | active: 31.6 µM
C=CC(=O)c1ccc(CCCCCC)cc1 | inactive
C[C@@H](NC(=O)c1nc[nH]c1C(=O)N[C@@H](Cc1ccccc1)C(=O)OC(C)(C)C)c1ccccc1 | inconclusive: 25.1 µM [inhibitor, partial curve, poor fit]
Oc1ccc(Nc2nc3ccccc3nc2Nc2ccc(O)cc2)cc1 | inconclusive: 11.2 µM [inhibitor, partial curve]
CC(C)=C1C(=O)NN(c2cccc(Cl)c2)C1=O | inconclusive: 39.8 µM [inhibitor, single point]
Cc1cc(=O)oc2c(CN3CCC(C)CC3)c(O)c(Cl)cc12 | active: 28.2 µM
COc1cc(OC)c([C@@H]2O[C@H](CO)[C@@H](O)[C@H](O)[C@H]2O)c(OC)c1 | inactive
COC(=O)C(Cc1ccccc1)NS(=O)(=O)c1cc(Br)ccc1Br (stereo unspecified) | inactive
COc1ccc(CNC(=O)C2CC(c3cccc([N+](=O)[O-])c3)=NO2)cc1 (stereo unspecified) | inconclusive: 3.16 µM [inhibitor, full curve, poor fit]
O=C(Nc1ccc(O)cc1)C1CC=CCC1 (stereo unspecified) | inactive
O=c1c(-c2cc(F)cc(F)c2)nc2cnc(N3CCNCC3)nc2n1Cc1ccc(F)cc1 | inconclusive: 22.4 µM [inhibitor, partial curve, poor fit]
COc1cc(NC(=S)NC(=O)CC(C)C)ccc1NC(=O)c1cc2ccccc2o1 | inconclusive: 3.55 µM [inhibitor, full curve]
Cc1cc(C(=O)CSc2nnc(-c3ccco3)o2)c(C)n1CC1COc2ccccc2O1 (stereo unspecified) | active: 31.6 µM
O=C1CCCC/C1=C\Nc1ccc(O)cc1 | inconclusive: 35.5 µM [inhibitor, single point]
O=C(/C=C/c1ccc2c(c1)OCO2)c1ccc[nH]1 | inactive
C/C=C1\COC(C(=O)NCc2ccccn2)(C(F)(F)F)C=C1C=C(C)C (stereo unspecified) | inactive
